Assay results from patent US20060148059A1, “Salt tolerant l-myo-inositol 1-phosphate synthase and the process of obtaining the same” (priority 2002, published 2006).
Some of these results come from one statement about several compounds together.

Test: Inositol synthase activity in presence of increasing NaCl concentration
Type: biochemical
Settings: in vitro
Source text: With respect to salt-sensitivity, RINO1 and PINO1 proteins differ a great deal.
FIG. 3: Inositol synthase activity in presence of increasing NaCl concentration for purified native (A) and recombinant (B) enzymes.

| Substance | NaCl concentration up to which the enzyme is tolerant to salt [mM] |
| --- | --- |
| L-myo-inositol 1-phosphate synthase [PINO Native] | ≤ 500 |
| L-myo-inositol 1-phosphate synthase [PINO Recombinant] | ≤ 500 |
